Reference: paper PMC8093152, “Biosynthesis of the Tricyclic Aromatic Type II Polyketide Rishirilide: New Potential Third Ring Oxygenation after Three Cyclization Steps” (Molecular Biotechnology, 2021)
These are yes or no findings as the source states them, for the method shown. Some entries that bind do so weakly or less than the wild type. Where a sequence is shown, tags or fusion partners need not be part of it.

Target: RslO1 monooxygenase, C-terminal His-tag recombinant protein (Streptomyces bottropensis Gö C4/4) (UniProt W8QPS6)
Assay: crystal structure; apo RslO1, sitting drop vapor diffusion at 20 °C, 0.1 M HEPES pH 7.5, 36% polyethylene glycol 600 (seeded); space group P2(1)2(1)2(1); 1.60 Å; both purified

B1: RslO1 monooxygenase, C-terminal His-tag recombinant protein (enzyme, Streptomyces bottropensis Gö C4/4)
chain: MKFGINLFPTVGPAEKSAGQHFEESLRLAELADELGFHHVKTVEHYFHEYGGYSPDPVTFLAAAAARTRRVRLVTGAVLPVFTHPLKLAGKLAMLDNISQGRLDVGFGRAFLPDEFTAFEISMDESRARFDEGVEAVRRLWAEEDVVWEGTFHRFGPVTMLPRTWQRPHPRILVATAKTPASAEAAARAGHGVMLVPSINPREQVQKTLSLYRDAASAAGFKPTEEDIHMSYNCYLAEDGQEARQKGGQASERANRALASAVSAWRETRSADYPGYEKIVEKAGRGDFDRAVAERKALVGTPDEVRAAIDDIRGWFGDFTISLQVISGAMPFEESARTMRLFAEHLLPHYAAND
notes: RslO1, FMN-dependent luciferase-like monooxygenase of the rishirilide (Rsl) gene cluster of Streptomyces bottropensis Gö C4/4; gene amplified from cosmid 4 and cloned between NdeI and XhoI of pET21a(+); predicted mass of the tagged protein 40.04 kDa; also called monooxygenase RslO1; FMN-dependent luciferase-like monooxygenase RslO1; source: E. coli BL21 (DE3) Star, pET21a(+), purified (Ni-NTA …)
binding: binds
